Source: paper PMC10403741
Results are given in words; binding and its absence hold for the method and conditions named. Binding seen in cells or lysates may run through a third protein. Some results given as binding are weak or reduced against the parent protein; the word gives no strength.

Amino acid sequences for entries named in this document (tags omitted).
UniProt Q04206: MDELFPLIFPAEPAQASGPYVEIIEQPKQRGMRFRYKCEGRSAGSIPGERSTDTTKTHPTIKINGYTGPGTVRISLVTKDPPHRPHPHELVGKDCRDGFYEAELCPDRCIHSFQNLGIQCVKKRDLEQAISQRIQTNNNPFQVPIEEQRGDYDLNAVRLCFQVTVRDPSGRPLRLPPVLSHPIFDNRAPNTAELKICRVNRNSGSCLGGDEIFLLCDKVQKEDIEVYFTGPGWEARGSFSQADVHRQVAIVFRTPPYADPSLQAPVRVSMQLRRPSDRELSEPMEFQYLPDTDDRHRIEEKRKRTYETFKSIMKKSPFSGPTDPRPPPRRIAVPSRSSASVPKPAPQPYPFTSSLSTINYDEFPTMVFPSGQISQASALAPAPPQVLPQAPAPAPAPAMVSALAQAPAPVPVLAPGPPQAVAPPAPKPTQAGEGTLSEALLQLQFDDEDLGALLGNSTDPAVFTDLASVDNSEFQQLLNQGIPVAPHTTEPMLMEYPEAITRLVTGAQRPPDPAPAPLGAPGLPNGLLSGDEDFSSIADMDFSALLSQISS

Target: NF-κB/RelA (human (endogenous in hSAECs)) (UniProt Q04206)
Assay: co-IP; nuclear proteins of RSV-infected hSAECs; NLB buffer (50 mM Tris-HCl pH 7.5, 100 mM NaCl, 50 mM KCl, 3 mM MgCl2, 10% glycerol, 0.1% Tween-20); Benzonase-digested; IP with anti-NF-κB/RelA and blot with anti-NEIL2, and the reverse; beads without antibody as negative control

binding: binds
B1: Nei-like DNA glycosylase 2 (protein, UniProt Q969S2 1-332)
chain: MPEGPLVRKFHHLVSPFVGQQVVKTGGSSKKLQPASLQSLWLQDTQVHGKKLFLRFDLDEEMGPPGSSPTPEPPQKEVQKEGAADPKQVGEPSGQKTLDGSSRSAELVPQGEDDSEYLERDAPAGDAGRWLRVSFGLFGSVWVNDFSRAKKANKRGDWRDPSPRLVLHFGGGGFLAFYNCQLSWSSSPVVTPTCDILSEKFHRGQALEALGQAQPVCYTLLDQRYFSGLGNIIKNEALYRAGIHPLSLGSVLSASRREVLVDHVVEFSTAWLQGKFQGRPQHTQVYQKEQCPAGHQVMKEAFGPEDGLQRLTWWCPQCQPQLSEEPEQCQFS
